Source: the supplement of paper PMC5949888
Most values lie at the floor of the assay. Slopes are relative: functional sequences can read slightly below zero.

Tested on: Saccharomyces cerevisiae PS128 hsf1 delta, HSF1(1-493) fusion
Test: growth estimate (transactivation domain function in HSF1 fusion, heat-shock survival) (a.u. (slope of normalised read count over time)); higher = stronger growth at 37°C, i.e. more transactivation activity
Conditions: library: random library
Method: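 Random 60-nt DNA library encoding peptides of up to 20 aa, fused to the C-terminus of yeast HSF1 residues 1-493 (C-terminal TAD deleted) and expressed from the native HSF1 promoter on a CEN plasmid in hsf1-deleted S. cerevisiae PS128. Cells were selected at 37°C on -trp 5-FOA plates for 0, 2, 4, 6 and 8 days and amplicons were sequenced. Growth estimate is the slope of a robust linear fit of total-sum-normalised read counts (normalised to the first time point) over time, using at least 2 replicates. Sequences are classed functional (TAD activity) above a threshold of -0.13, set from stop-codon control sequences.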

Substance	growth estimate
IRRLWKTR	< -0.25
VTIPTWGF	< -0.25
EVGVTKRCRTAIKRRDSRTV	< -0.25
TTGRC	< -0.25
DVPGMCLS	< -0.25
DSGSR	< -0.25
SGN	< -0.25
WHLGFGTPIPRLSWRGYRLF	< -0.25
VLFAVTVDHRVLVASRITSS	< -0.25
VNPVQPVVRVGIRRQFEVQ	< -0.25
PGLRSPLRTEGMRW	< -0.25
KSGC	< -0.25
IVFS	< -0.25
RSQHLGHSKWQREARSFECP	< -0.25
IVVRRVSMLDSSLRPQLRLR	< -0.25
NCVAHDVGACTPKGHRRTAS	< -0.25
CKLLELPGTYM	< -0.25
QQQRLRYIIAVLPHWRRCTY	< -0.25
YLVKVSRIAATVGRPRGGSP	< -0.25
WKRYNTTRGITCIQFLLALD	< -0.25
DPVLRVGGETPVSQAFRAWI	< -0.25
GELKNAQLLY	< -0.25
FTLRYP	< -0.25
LIVVGLTRS	< -0.25
LLTK	< -0.25

Four entries picked at random from the list so far:
Substance	growth estimate
WHLGFGTPIPRLSWRGYRLF	< -0.25
NCVAHDVGACTPKGHRRTAS	< -0.25
IVFS	< -0.25
WKRYNTTRGITCIQFLLALD	< -0.25

The list goes on.

Substance	growth estimate
CNWQDGVLGFNYSRQNYTHV	< -0.25
YPAVDLSHMQQAIR	< -0.25
GCQSQGSDSVEPKICG	< -0.25
RRGVCLELCL	< -0.25
TRFKAKLWSTSLVVECVAGL	< -0.25
MREPYAFRLKQITPRPGRCV	< -0.25
YPGISSRPGASATDGILSGL	< -0.25
LAYRLG	< -0.25
RNSMRL	< -0.25
PVDVNLRK	< -0.25
SLQ	< -0.25
ASNALKSVSWAPVLVLRALL	< -0.25
LATQNPKFWFVRARRLHRQT	< -0.25
WGKIRLWNNLLTEYDLMRGR	< -0.25
GLHWWTPIFCHNRWDLSFRE	< -0.25
MLR	< -0.25
LSLLVPAQFLVIKPGRLCRC	< -0.25
CLYGREKYLL	< -0.25
VLKPGGGG	< -0.25
SHELAPGENFPWHDPSSHTV	< -0.25
QKGGMRMIDGRRYHAKSAQG	< -0.25
AHAEHKPPVYLNLRPDFQAQ	< -0.25
QDCKRENS	< -0.25
PRIVA	< -0.25
LPEAASRNSS	< -0.25

Substance	growth estimate
RCIRSRTPREFLCSRPSSLT	< -0.25
EQGRLRKPGARDWSIRSDYS	< -0.25
IPASHSREGV	-0.246
GGSIHMSQFSLVCVRCPVC	< -0.25
IDAGTLSPLKIESG	< -0.25
AHAGDDLHRSVPGGRALNGG	< -0.25
RTFLPVFS	< -0.25
VVRVRPPGSRILPSTTLGPR	< -0.25
VGR	< -0.25
MIFPNWLKI	< -0.25
CTVRLTRFPVQPSRRFSGFP	< -0.25
GRSSLNLRLISS	< -0.25
LPSLGP	< -0.25
RWAKDRTGKLWMGASGKKMC	< -0.25
DDRITLLSEG	< -0.25
ASCECPIIA	< -0.25
TESAGQITGSNVNGGSLH	< -0.25
ACDQRDGARVSCHHR	< -0.25
AKVSMSVEGCSACETAGLSC	< -0.25
PVAPPIIRDLTGGCL	< -0.25
GPFGYPADSAHCFRKRDSIY	< -0.25
QVLWSADGSAVFMIYVSRLI	< -0.25
QYSCVHRLDTPLKEILSR	< -0.25
GASDFVSISLGTVVGVTMEP	< -0.25
GVGGRLPRVQLRALAQPRGT	< -0.25

Substance	growth estimate
TLGTEVACMVVPQNIGVLKR	< -0.25
RWQHFVYSGRVRNRVALMGR	< -0.25
EACSNSDRAEGQMGHV	< -0.25
DSDVGTHPIIWIVT	< -0.25
NIIAFIWGHERSSSISIWPV	< -0.25
WGVLAGGICGSMAKPTFGGA	< -0.25
GIEGMVEEFSRSMF	< -0.25
IVAIYARFTVYVGPDQRARR	< -0.25
KAARDWLQQLVKIRAHPQLE	< -0.25
MCNR	0.0639
GSMSRAFAVY	< -0.25
TPEE	< -0.25
CQLFMGRRSQGLLFLCGDGP	< -0.25
RLPGIVAGDGSLQT	< -0.25
ECRSIRAQHREGPKG	< -0.25
MCTVFLHLGKEFYCHPRTAD	< -0.25
LMQRKPLFPQI	< -0.25
RVQTATLLYIREPCM	< -0.25
LLPSRFPTGNLPLGCGKPPS	< -0.25
GKGCSYRAYYSRLYRPRRGL	< -0.25
EYALCSFECGQCRFGIDPFR	-0.0964
VRSANEGHKLFSSLSRYPQR	< -0.25
PSRSIQ	< -0.25
SGYKVRGGSGRKVTLRG	< -0.25
WKFCSLTSRSC	< -0.25

Substance	growth estimate
TVWIVGFEHCVAWHVLYYGP	< -0.25
GDQ	< -0.25
WMLARATEVFPGDAVSGFI	< -0.25
IKYGLIAVRRNYITGAIVST	< -0.25
GAYLSNFAKEFDLMQSQFIS	< -0.25
DIAD	< -0.25
PYIRFRGSGGL	< -0.25
SRAHEFERVGRSVLACRRPL	< -0.25
PLHLVWLVLGGCA	< -0.25
CSHV	< -0.25
SDGMLVPCGVAWIKKHSLRR	< -0.25
TRLGSSHSADNMEKLFGP	< -0.25
CNGRVTNH	< -0.25
HICHPV	< -0.25
EHRVNPL	< -0.25
RVSVGRLV	< -0.25
RGPCKPVRWLLSPVRAPGQR	< -0.25
YERSFIDKLVG	< -0.25
VGNIQPHWAKA	< -0.25
KVFENVDTPLLESIGIADLP	< -0.25
RAWRVRCGT	< -0.25
GYLRPGYGEHVA	< -0.25
IYMGASGGVWF	< -0.25
QVGRTAAEAKYRRQSKLTER	< -0.25
GRRRSVINNKVQWGIERRGQ	< -0.25

For convenience, some entries already given:
Substance	growth estimate
PYIRFRGSGGL	< -0.25
SRAHEFERVGRSVLACRRPL	< -0.25
PLHLVWLVLGGCA	< -0.25

More entries follow:

Substance	growth estimate
TRQVRFDQPGVRTWRA	< -0.25
RCHLGRGALREFERI	-0.219
LSRGMITWFSLLSVDPEHRP	< -0.25
LRGWLGRRRPMCGR	< -0.25
WHFLVRPKCYN	< -0.25
VRRAMLCVITRQNPGLSFTH	-0.203
ARRSETRRLKLHLHSQALGS	< -0.25
FHLRGYSDRLNPSAEKDMQR	< -0.25
TATLYRFGM	< -0.25
VRKAGSGLHFASEQTNMIVT	< -0.25
TRIFKAPQL	< -0.25
ANGGEIDYCIIPNAAPELWI	< -0.25
GRRASILH	-0.245
SSSQKLPCYEQWPLFRSSPL	-0.243
GMF	< -0.25
PCLVSAVSEGTWSVSVPRVS	< -0.25
VVIDCV	< -0.25
LGIIPLSSRK	< -0.25
VLLGWGSSPSISPPRKGDPV	< -0.25
LGCSRVQEEYNFIKVVDWIW	< -0.25
SGGS	< -0.25
